Reference: PubChem BioAssay AID2685 (National Center for Advancing Translational Sciences (NCATS), 2010)
This is one part of the list. These are further read-outs of the screen, such as a control signal, another cell line or another target. No call is given for them. The list favours compounds with an active or inconclusive main result. Potencies come from curve fits of mixed quality, noted in brackets.

Test: qHTS Assay for Lipid Storage Modulators in Drosophila S3 Cells;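 on cell number change: cells counted by Cell Tracker Red CMTPX staining in the red channel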
Conditions: BODIPY lipid droplet fluorescence, 18-24 h; for cell number change: measured here: cell count max response, cells fed with added oleic acid
Procedure, shortened: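 Laser-scanning cytometry quantifies lipid droplet accumulation (500–530 nm total intensity; droplet/cell object ratio) in oleic acid-fed (400 uM added) Drosophila S3 cells treated with a concentration series. 20 uM Triacsin C defined 100% inhibition.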

[1] = measured here: cell number channel AC50, cells fed with added oleic acid
[2] = measured here: lipid fluorescence (Fed channel) AC50, cells fed with added oleic acid

Row | Compound | cell number change | AC50 [1] | AC50 [2]
1 | CCOC(=O)C1CCN(c2cc3c(cc2NC(=O)c2ccccc2OCC)n(C)c(=O)n3C)CC1 | -1.81% | 0.366 µM [falling, partial curve] | 2.31 µM [falling, partial curve]
2 | CCn1c(SCC(=O)c2cc(C)n(-c3ccc(C(=O)OC)cc3)c2C)nnc1-c1cccnc1 | -23.3% | – | 23.1 µM [falling, single point]
3 | O=C(Nc1ccc(Cl)cc1)C1CC=CCC1C(=O)OCC(F)(F)C(F)F (configuration not stated) | – | 6.51 µM [falling, single point] | –
4 | CCCCn1c(SCC(=O)NC2CC2)nnc1-c1ccncc1 | -6.67% | – | –
5 | CCOC(=O)c1nnn(CC(=O)Nc2ccccc2OC)c1C(=O)OCC | -10.6% | – | –
6 | CCN(CC)CCNC(=O)C1c2ccccc2C(=O)N(C)C1c1cn(C)c2ccccc12 (configuration not stated) | 6.25% | – | 16.4 µM [rising, single point]
7 | N#Cc1ccc(OCC(=O)N2CCN(S(=O)(=O)c3ccc(Cl)s3)CC2)cc1 | -3.01% | 0.092 µM [falling, full curve, poor fit] | –
8 | O=C(c1cc(COc2ccc3ncccc3c2)on1)N1CCC[C@H]1CO | -15.8% | – | –
9 | COc1ccc(C(=O)/C=C/N(C)C)cc1 | -46.9% | 29.1 µM [falling, single point] | –
10 | CC1=NN(C(C)C)C(=O)C1 | -11.6% | – | 0.00461 µM [falling, full curve, poor fit]
11 | CCc1nnc(NC(=O)CCN2C(=O)/C(=C/c3cc(OC)c(OC)c(OC)c3)SC2=S)s1 | 38.7% | 32.6 µM [rising, single point] | –
12 | C=C(C)[C@@H](O)COc1c2ccoc2cc2oc(=O)ccc12 | -2.58% | – | 23.1 µM [rising, single point]
13 | COc1ccnc(N=CNOCc2ccc(F)cc2Cl)c1C#N | 39.2% | 0.461 µM [rising, full curve] | 1.64 µM [rising, full curve]
14 | Cc1ccccc1-c1n[nH]c(=S)n1/N=C/C=C/c1ccco1 | 22.3% | 0.259 µM [rising, full curve, poor fit] | 0.231 µM [rising, full curve]
15 | COC(=O)CNC(=O)c1cn(CC(C)C)c(=O)c2cc(OC)c(OC)cc12 | -19.2% | – | 29.1 µM [falling, single point]
16 | CC(C)CCOc1ccc(C2=NNC(=O)CC2)cc1 | -25.9% | – | 20.6 µM [falling, partial curve]
17 | Cc1nc2ccccn2c1-c1csc(Nc2ccc(C(=O)O)cc2)n1 | -6.39% | – | 0.651 µM [falling, full curve, poor fit]
18 | Cc1cc(/C=C/C(=O)O)c(C)n1-c1ccc(Cl)cc1 | -26% | – | 0.92 µM [falling, partial curve]
19 | COc1ccc(N(CC(=O)NCCSc2ccccn2)S(C)(=O)=O)cc1 | – | – | 1.03 µM [falling, full curve]
20 | Cc1ccnc(NC(=O)Cn2ccc([N+](=O)[O-])n2)c1 | -36.2% | 0.291 µM [falling, full curve, poor fit] | 5.17 µM [rising, partial curve]

Row | Compound | cell number change | AC50 [1] | AC50 [2]
21 | CN(C)C(=O)CSC1c2ccccc2C(=O)N1c1ccccc1 (configuration not stated) | – | – | 29.1 µM [rising, single point]
22 | c1ccc(Cn2c(SCc3cn4cccnc4n3)nnc2-c2ccco2)cc1 | -1.04% | – | –
23 | COc1ccc2c(Cl)c(C(=O)OCC(=O)c3ccc4c(c3)NC(=O)CO4)sc2c1Cl | 3.25% | – | 0.291 µM [rising, full curve, poor fit]
24 | C/C(=C\c1ccccc1)CN(C)CCN(C)C | 22.7% | – | 0.13 µM [falling, full curve, poor fit]
25 | Cc1cc(C(=O)COC(=O)C(C)NC(N)=O)c(C)n1Cc1ccco1 (configuration not stated) | 45.4% | 32.6 µM [rising, single point] | –
26 | CC(C)NC(=O)Cn1c(=O)n(CC(=O)N2CCCCC2)c(=O)c2sccc21 | – | – | 29.1 µM [falling, single point]
27 | CCOc1cc(S(=O)(=O)n2ccc(C)n2)ccc1Br | – | 6.51 µM [rising, single point] | –
28 | O=C(NCCCn1ccnc1)c1ccc(OCC(F)(F)F)cc1 | 18.4% | – | 0.326 µM [rising, full curve, poor fit]
29 | CCC(C(=O)NCc1ccccn1)n1c2ccccc2c2nc(=O)cc(C)n21 (configuration not stated) | -39.9% | 20.6 µM [falling, single point] | 23.1 µM [falling, single point]
30 | CC(C)C[C@H](NC(=O)c1nc[nH]c1C(=O)N[C@@H](CCCCNC(=O)OC(C)(C)C)C(=O)OC(C)(C)C)C(=O)OCc1ccccc1 | 51.5% | 25.9 µM [rising, single point] | 23.1 µM [falling, single point]
31 | C=CCNC(=O)NC(=O)COC(=O)CNS(=O)(=O)c1ccc(F)c(F)c1F | – | 0.116 µM [falling, full curve, poor fit] | 0.82 µM [falling, full curve]
32 | O=C(NCC1(c2ccccc2)CCCC1)c1ccccc1 | 7.57% | – | 1.16 µM [falling, single point]
33 | COc1ccc(-c2nc(CS(=O)(=O)CC(=O)NCc3cccc(Br)c3)c(C)o2)cc1 | – | – | 14.6 µM [falling, partial curve]
34 | COc1ccccc1C(=O)N1CCN(C2CCN(Cc3ccccc3)CC2)CC1 | -5.94% | – | –
35 | CCc1ccc(NC(=O)CSc2nc(=O)n3cc(C)ccc3n2)cc1 | – | – | 2.59 µM [rising, partial curve]
36 | COc1ccc(CCNC(=O)c2oc3ccc(OC)cc3c2C)cc1 | 16.7% | – | 10.3 µM [rising, partial curve]
37 | O=C(Nc1ccc(Cl)c(Cl)c1)c1ccc(Cl)c(Cl)c1 | -0.865% | – | –
38 | CCOc1ccc(Br)cc1S(=O)(=O)Nc1cccnc1 | -5.26% | – | –
39 | COC(=O)C1=C(C(=O)OC)C(c2ccccc2O)c2sc(=O)[nH]c2S1 (configuration not stated) | 17.1% | – | 20.6 µM [rising, single point]
40 | Cc1nc2scc(C)n2c(=O)c1S(=O)(=O)NCc1ccc(F)cc1 | 5.9% | – | 29.1 µM [rising, partial curve]

3 of these compounds in a different format.
Row	Compound	cell number change	AC50 [1]	AC50 [2]
26	CC(C)NC(=O)Cn1c(=O)n(CC(=O)N2CCCCC2)c(=O)c2sccc21	–	–	29.1 µM [falling, single point]
27	CCOc1cc(S(=O)(=O)n2ccc(C)n2)ccc1Br	–	6.51 µM [rising, single point]	–
28	O=C(NCCCn1ccnc1)c1ccc(OCC(F)(F)F)cc1	18.4%	–	0.326 µM [rising, full curve, poor fit]
